This assay relates to BDF1 mice, P388 leukemia ip, median survival T/C. The assay is described as follows: NCI In Vivo Anticancer Drug Screen. Data for tumor model P388 Leukemia (intraperitoneal) in B6D2F1 (BDF1) mice. The settings on record: T/C endpoint: median survival time, higher T/C = longer survival. The method in brief:
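Antitumour effect was judged in vivo: survival in drug-treated mice, normalised to that of vehicle-dosed controls, gives the reported T/C.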

The mark [1] stands for this setting: dose: 200.0 mg/kg/injection, schedule: Q04DX003 (ip), vehicle: saline.
[2] abbreviates: dose: 400.0 mg/kg/injection, schedule: Q04DX003 (ip), vehicle: saline.
[3] abbreviates: dose: 100.0 mg/kg/injection, schedule: Q01DX009 (ip), vehicle: saline.
The mark [4] stands for this setting: dose: 200.0 mg/kg/injection, schedule: Q01DX009 (ip), vehicle: saline.
The mark [5] stands for this setting: dose: 200.0 mg/kg/injection, schedule: Q04DX003 (ip), vehicle: saline with Tween-80.
The mark [6] stands for this setting: dose: 200.0 mg/kg/injection, schedule: Q01DX009 (ip), vehicle: Klucel (hydroxypropylcellulose) (HPC).
The mark [7] stands for this setting: dose: 400.0 mg/kg/injection, schedule: Q01DX009 (ip), vehicle: Klucel (hydroxypropylcellulose) (HPC).
The mark [8] stands for this setting: dose: 50.0 mg/kg/injection, schedule: Q01DX009 (ip), vehicle: Klucel (hydroxypropylcellulose) (HPC).
Setting [9] is: dose: 200.0 mg/kg/injection, schedule: Q01DX009 (ip), vehicle: saline with Tween-80.
Setting [10] is: dose: 400.0 mg/kg/injection, schedule: Q04DX003 (ip), vehicle: saline with Tween-80.

The list shows only some results of the screen, not a fair sample: it gathers tests that were run many times, whatever their T/C, doses with no T/C, and many T/C values between a quarter and a half above the control. Further doses and runs are listed elsewhere. T/C: endpoint of the treated group in % of that of the vehicle group. Some entries give survivors of the animals treated and no T/C: the source holds a T/C of zero for them, seemingly a mark for toxic or unscored doses. Some doses without a T/C left all or most animals alive at the check, yet need not have been tolerated: the source hardly ever lists a survival T/C far under the control, and the zero likely stands for such cases as well. Counts of survivors are from the toxicity check (mostly the fifth day) where no day follows; animals may have died later. Schedules are NCI's codes, read here as Q, the interval in days (D) or hours (H), X, the number of doses. Some entries hold several experiments; the results are listed from low to high. For survival time, this PubChem deposit counts one and a half times the control or more as active, and values a quarter to a half above the control carry no call in these data; other NCI protocols may use other cut-offs. Some T/C values are followed by the survivors on the day toxicity was checked, most often the fifth; without a count, all were alive then.

For the molecule `O=[N+]([O-])c1cccc2nonc12`, the survivor count reads like this: (dose: 10.0 mg/kg/injection, schedule: Q01DX009 (ip), vehicle: saline) 1 of 7; (dose: 20.0 mg/kg/injection, schedule: Q01DX009 (ip), vehicle: saline) 0 of 7; (dose: 40.0 mg/kg/injection, schedule: Q01DX009 (ip), vehicle: saline) 0 of 7.

Turning to `CC12CCC3C(CCC4=CC(O)CCC43C=O)C1(O)CCC2c1ccc(=O)oc1` (stereo unspecified), the survivor count is, setting by setting: (dose: 3.0 mg/kg/injection, schedule: Q01DX009 (ip), vehicle: saline + alcohol) 4 of 4; (dose: 4.6 mg/kg/injection, schedule: Q01DX010 (ip), vehicle: carboxymethylcellulose (CMC)) 6 of 6; (dose: 8.0 mg/kg/injection, schedule: Q01DX010 (ip), vehicle: carboxymethylcellulose (CMC)) 6 of 6; (dose: 12.0 mg/kg/injection, schedule: Q01DX010 (ip), vehicle: carboxymethylcellulose (CMC)) 5 of 6; (dose: 18.0 mg/kg/injection, schedule: Q01DX010 (ip), vehicle: carboxymethylcellulose (CMC)) 0 of 6; (dose: 27.0 mg/kg/injection, schedule: Q01DX010 (ip), vehicle: carboxymethylcellulose (CMC)) 0 of 6.

As for `CC1(C)OCC(=NNC(N)=O)CO1`, the survivor count is, setting by setting: under setting [1], 3 of 6; under setting [2], 0 of 6.

As for `O=c1[nH]c(=O)n(C2CC(O)C(CO)O2)cc1I` (stereo unspecified), the T/C (dose: 160.0 mg/kg/injection, schedule: Q01DX009 (ip), vehicle: saline with Tween-80) was 125 and 126 % of control.

Take `CC(C)[N+](C)(C)CC(O)COc1cccc2ccccc12` (stereo unspecified): the survivor count under setting [3] is listed as 0 of 6.

For `CCNc1nncs1`, the T/C is 136 % of control [5 of 6 alive] (dose: 50.0 mg/kg/injection, schedule: Q01DX009 (ip), vehicle: saline); 141 % of control (dose: 66.0 mg/kg/injection, schedule: Q01DX009 (ip), vehicle: saline); 134 and 142 % of control (dose: 132.0 mg/kg/injection, schedule: Q04DX003 (ip), vehicle: saline with Tween-80); 142 % of control under setting [5]; 136 % of control under setting [1]. Moreover, the survivor count is reported as 5 of 6 under setting [4]; 4 of 6 (dose: 300.0 mg/kg/injection, schedule: Q04DX003 (ip), vehicle: saline with Tween-80); 5 of 6 under setting [2].

Turning to `O=C(O)CNC1CSSC1`, the T/C is 128 % of control (dose: 12.5 mg/kg/injection, schedule: Q01DX009 (ip), vehicle: water) and 128 % of control [5 of 6 alive] (dose: 100.0 mg/kg/injection, schedule: Q01DX009 (ip), vehicle: water). Moreover, the survivor count was 3 of 6 (dose: 200.0 mg/kg/injection, schedule: Q01DX009 (ip), vehicle: water) and 0 of 6 (dose: 400.0 mg/kg/injection, schedule: Q01DX009 (ip), vehicle: water).

Regarding `CC(=O)OCc1cc(=O)n(C)c2c3c4c(cc12)c(C)cc(=O)n4CO3`, the T/C is, setting by setting: (dose: 200.0 mg/kg/injection, schedule: Q01DX001 (ip), vehicle: Klucel (hydroxypropylcellulose) (HPC)) 133 % of control; (dose: 400.0 mg/kg/injection, schedule: Q01DX001 (ip), vehicle: Klucel (hydroxypropylcellulose) (HPC)) 133 % of control.

On to `CCS(=O)(=O)C(Br)CBr` (stereo unspecified), for which the survivor count runs as follows: under setting [6], 4 of 6; under setting [7], 1 of 6.

In the case of `N#Cc1sc2ccccc2c1CBr`, the survivor count is 4 of 6 under setting [8] and 2 of 6 (dose: 75.0 mg/kg/injection, schedule: Q04DX003 (ip), vehicle: Klucel (hydroxypropylcellulose) (HPC)).

Regarding `CC(C)(C)NCCC(O)c1cc(C(F)(F)F)nc2c(C(F)(F)F)cccc12` (stereo unspecified), the survivor count under setting [9] is recorded as 1 of 6.

For `CCC(C)C(NC(=O)OCc1ccccc1)C(=O)ON1C(=O)CCC1=O` (stereo unspecified), the T/C under setting [5] is 127 % of control.

Take `ClCCN(CCCl)CCCN1c2ccccc2Sc2ccccc21`: the T/C (dose: 3.12 mg/kg/injection, schedule: Q04DX003 (ip), vehicle: saline with Tween-80) is 138 % of control. Moreover, the survivor count by setting is: (dose: 25.0 mg/kg/injection, schedule: Q04DX003 (ip), vehicle: saline with Tween-80) 6 of 6; (dose: 50.0 mg/kg/injection, schedule: Q04DX003 (ip), vehicle: saline with Tween-80) 4 of 6 and 5 of 6; (dose: 75.0 mg/kg/injection, schedule: Q04DX003 (ip), vehicle: saline with Tween-80) 3 of 6 and 5 of 6.

In the case of `CC(=O)Nc1ccc2c([N+](=O)[O-])cccc2c1-c1c(NC(C)=O)ccc2c([N+](=O)[O-])cccc12`, the T/C is 135 % of control under setting [8] and 125 % of control under setting [6].

Consider `Cc1ccc(C(=O)Cl)cc1S(=O)(=O)F`, for which the survivor count (dose: 12.5 mg/kg/injection, schedule: Q01DX009 (ip), vehicle: saline with Tween-80) is given as 6 of 6; the survivor count (dose: 50.0 mg/kg/injection, schedule: Q01DX009 (ip), vehicle: saline with Tween-80) was 5 of 6; the survivor count under setting [9] is listed as 2 of 6; the survivor count under setting [10] is listed as 0 of 6.

As to `Cc1cc(O)c2c(c1)C(c1ccc3cc4c(c(O)c3c1O)C(=O)CC(C)(O)C4)c1cccc(O)c1C2=O` (stereo unspecified), the survivor count is on record as 6 of 6 (dose: 1.56 mg/kg/injection, schedule: Q01DX009 (ip), vehicle: olive oil, sesame oil, peanut oil); 6 of 6 (dose: 3.12 mg/kg/injection, schedule: Q01DX009 (ip), vehicle: olive oil, sesame oil, peanut oil); 6 of 6 (dose: 6.25 mg/kg/injection, schedule: Q01DX009 (ip), vehicle: olive oil, sesame oil, peanut oil); 6 of 6 (dose: 12.5 mg/kg/injection, schedule: Q01DX009 (ip), vehicle: olive oil, sesame oil, peanut oil); 1 of 6 (dose: 25.0 mg/kg/injection, schedule: Q01DX009 (ip), vehicle: olive oil, sesame oil, peanut oil); 2 of 6 (dose: 50.0 mg/kg/injection, schedule: Q01DX009 (ip), vehicle: olive oil, sesame oil, peanut oil).

For `NC(CC1=CCC=CC1)C(=O)O` (stereo unspecified), the survivor count reads like this: (dose: 25.0 mg/kg/injection, schedule: Q01DX009 (ip), vehicle: saline) 1 of 3; under setting [4], 3 of 3. Under setting [3], the T/C is 127 % of control.

Take `OCCC[P+](c1ccccc1)(c1ccccc1)c1ccccc1`: the survivor count (dose: 200.0 mg/kg/injection, schedule: Q04DX003 (ip), vehicle: Klucel (hydroxypropylcellulose) (HPC)) is 0 of 6.

Consider `Fc1ccc(CSc2ncnc3c2ncn3C2CCCCO2)cc1` (stereo unspecified), for which the survivor count is recorded as 6 of 6 (dose: 100.0 mg/kg/injection, schedule: Q01DX009 (ip), vehicle: Klucel (hydroxypropylcellulose) (HPC)) and 5 of 6 under setting [7].

Take `COc1ccc(CN(C)CCN(C)CCN(C)Cc2ccc(OC)cc2)cc1`: the survivor count (dose: 200.0 mg/kg/injection, schedule: Q04DX003 (ip), vehicle: water) is listed as 0 of 6 and the survivor count (dose: 400.0 mg/kg/injection, schedule: Q04DX003 (ip), vehicle: water) is recorded as 0 of 6.

For the molecule `N#CC(C#N)c1nc2cccnc2s1`, the survivor count under setting [10] is recorded as 1 of 6.

In the case of `c1ccc2c(c1)C1c3ccccc3C2C2COCC12` (stereo unspecified), the survivor count by setting is: (dose: 150.0 mg/kg/injection, schedule: Q01DX009 (ip), vehicle: Klucel (hydroxypropylcellulose) (HPC)) 5 of 6; (dose: 225.0 mg/kg/injection, schedule: Q01DX009 (ip), vehicle: Klucel (hydroxypropylcellulose) (HPC)) 0 of 6; (dose: 335.0 mg/kg/injection, schedule: Q01DX009 (ip), vehicle: Klucel (hydroxypropylcellulose) (HPC)) 0 of 6.

For the origin of these results see PubChem BioAssay AID328 (DTP/NCI, 2004).
